Assay results published in PubChem BioAssay AID2549 (National Center for Advancing Translational Sciences (NCATS), 2010).
Several values for one entry are separate records, joined by “and”; a condition that tells them apart may be missing. Equal entries are not always repeated. Out of some 240,000 compounds screened, about 1,300 (0.54%) were called active. The inconclusive results got no clear call from the source; some entries with a clear call stand among them for comparison. Calls come from the whole dose curve; as a rule, active = well fitted inhibition curve with a large enough effect; inconclusive = small, poorly fitted or top-dose-only effect; inactive = flat fitted curve, though single readings scatter. Potencies beside an inconclusive call are fits to weak or partial responses and may not hold up.

Sequences of proteins named here, by UniProt entry; tags and fusion partners are left off. A change or cut given only in a name is not applied to a line headed by its entry.
UniProt P46063: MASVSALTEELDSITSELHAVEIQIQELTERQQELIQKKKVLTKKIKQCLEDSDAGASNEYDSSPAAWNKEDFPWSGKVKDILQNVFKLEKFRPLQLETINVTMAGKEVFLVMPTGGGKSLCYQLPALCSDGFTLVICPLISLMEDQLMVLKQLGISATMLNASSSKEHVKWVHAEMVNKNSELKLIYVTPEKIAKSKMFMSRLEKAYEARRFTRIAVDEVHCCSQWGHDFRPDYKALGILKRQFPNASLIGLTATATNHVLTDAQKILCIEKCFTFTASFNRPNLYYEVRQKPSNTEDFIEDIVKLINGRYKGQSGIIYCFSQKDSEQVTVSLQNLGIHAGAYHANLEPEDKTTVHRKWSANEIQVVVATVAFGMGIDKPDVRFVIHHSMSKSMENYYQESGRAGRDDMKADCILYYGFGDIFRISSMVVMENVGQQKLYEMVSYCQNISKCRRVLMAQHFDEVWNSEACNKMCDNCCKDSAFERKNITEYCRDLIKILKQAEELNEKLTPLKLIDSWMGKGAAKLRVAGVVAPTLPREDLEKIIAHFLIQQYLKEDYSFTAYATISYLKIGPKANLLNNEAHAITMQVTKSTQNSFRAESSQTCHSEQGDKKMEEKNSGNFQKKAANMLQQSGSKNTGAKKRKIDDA

Target: ATP-dependent DNA helicase Q1 (Homo sapiens) (UniProt P46063)
Assay: qHTS Assay for Inhibitors of RecQ-Like Dna Helicase 1 (RECQ1); note: nearly all actives have a fitted effect of over 30% in size;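 for activity, negative = inhibition: plate controls were vehicle for no effect and no enzyme for full effect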
Details: RECQ1 DNA unwinding, red fluorescence kinetic read; activity, negative = inhibition: at 57.3 µM (top of the series); series mostly up to 57.3 µM
Procedure, shortened: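 RECQ1T1 50 nM; forked duplex (20 bp + 30-nt ss tails) 200 nM, ATP 2 mM final; pH 8.0, 2 mM MgCl2, 2.5 ug/ml poly(dI-dC); 15 min compound preincubation; discontinuous kinetic read over 2 h at RT.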
Potency is the fitted concentration of half-maximal effect.

Compound | Potency | activity, negative = inhibition | outcome
COc1cc(OC)c(C(=O)NCc2cccnc2)cc1OC | inconclusive: 0.562 µM [inhibitor, partial curve, poor fit] |  | 
Cc1cc(C)cc(NC(=O)CSc2nnc(-c3ccc(S(=O)(=O)N4CCCC4)cc3)o2)c1 | inconclusive: 5.01 µM [inhibitor, single point] |  | 
O=C(NCc1ccccc1)C1Cc2ccccc2CN1C(=O)c1ccco1 (stereo not given) | inconclusive: 3.16 µM [inhibitor, partial curve] |  | 
COCc1nnc(NS(=O)(=O)c2ccc(C)cc2)s1 | inconclusive: 0.447 µM [inhibitor, full curve] |  | 
Fc1cccc(Cl)c1CNc1ccc(N2CCCC2)cc1 |  | inactive: -5.12% | 
C/C=C1\COC(C(=O)NC)(C(F)(F)F)C=C1C=C1CCCCC1 (stereo not given) |  |  | inactive
COCCNC(=O)c1c(CSc2ccccc2)noc1C(=O)NCc1ccccc1 | inconclusive: 0.158 µM [inhibitor, partial curve, poor fit] |  | 
COC(=O)CSc1nc2ccc(NC(C)=O)cc2s1 | inconclusive: 0.158 µM [inhibitor, full curve] |  | 
Cc1ccc(C)n1C(Cc1ccccc1)C(=O)O (stereo not given) | active: 12.6 µM |  | 
CCCn1c(=O)[nH]c(=O)c2c(C(=O)OCC)cc(-c3cccs3)nc21 | inconclusive: 20 µM [inhibitor, partial curve] |  | 
CC(C)(Sc1ccc(CCN(CCCCC2CCCCC2)C(=O)NC2CCCCC2)cc1)C(=O)O | inconclusive: 31.6 µM [inhibitor, single point] |  | 
C#Cc1ccc([C@H]2C=C(C(=O)O)O[C@@H](OCc3ccc(CO)cc3)C2)cc1 |  | inactive: -13.2% | 
Cc1nn(-c2ccc(F)cc2)c(C)c1CN1CCN(Cc2ccccc2)C(CCO)C1 (stereo not given) | inconclusive: 25.1 µM [inhibitor, single point] |  | 
CC1CCCN(C(=S)SCC(=O)c2cc(Br)cc(Br)c2O)C1 (stereo not given) | inconclusive: 35.5 µM [inhibitor, single point] |  | 
CCOC(=O)c1sc2nc3c(SCCC(=O)O)cc(C(=O)c4cc(OC)ccc4O)cn3c(=O)c2c1C | inconclusive: 20 µM [inhibitor, partial curve] |  | 
CSC1=NCCN1CCOc1ccccc1 | inconclusive: 0.0251 µM [inhibitor, full curve, poor fit] |  | 
CCn1c(C)c(C)c2cc(C(=O)Nc3cccc(Cl)c3)ccc21 | active: 7.94 µM |  | 
Cc1ccc(S(=O)(=O)N(C)c2ccc(C(=O)N3CCc4ccccc4C3)cc2)cc1 | inconclusive: 4.47 µM [inhibitor, full curve] |  | 
CCSC1=NSC2=NC(=O)/C(=C\c3coc4ccccc4c3=O)C(=N)N12 |  | inactive: -4.72% | 
Cc1cc(NC(=O)c2cnn3c(C(F)F)cc(-c4ccccc4)nc23)no1 | inconclusive: 39.8 µM [inhibitor, single point] |  | 
CCCCN(C)C1=CC2=CC(=C(C#N)C#N)CCC2CC1 (stereo not given) | active: 14.1 µM |  | 
CCOC(=O)c1c(-n2cnnn2)sc2c1CCCC2 |  | inactive: 0.684% | 
CC1=NN(c2nc(-c3ccc(C#N)cc3)cs2)C(=O)C1 | inconclusive: 35.5 µM [inhibitor, single point] |  | 
CC(O)CN(Cc1cccc(Cl)c1)CC(C)O (stereo not given) | inconclusive: 4.47 µM [inhibitor, full curve, poor fit] |  | 

Rewritten with each value named: 3 of the compounds above.
COCCNC(=O)c1c(CSc2ccccc2)noc1C(=O)NCc1ccccc1
  Potency: inconclusive: 0.158 µM [inhibitor, partial curve, poor fit]
COC(=O)CSc1nc2ccc(NC(C)=O)cc2s1
  Potency: inconclusive: 0.158 µM [inhibitor, full curve]
Cc1ccc(C)n1C(Cc1ccccc1)C(=O)O (stereo not given)
  Potency: active: 12.6 µM

More compounds follow:

Compound | Potency | activity, negative = inhibition | outcome
CCOc1cc(/C=C2\NC(=S)N(c3c(C)n(C)n(-c4ccccc4)c3=O)C2=O)ccc1O | inconclusive: 39.8 µM [inhibitor, single point] |  | 
c1coc(-c2nnc3sc(Cc4cccs4)nn23)c1 | inconclusive: 31.6 µM [inhibitor, single point] |  | 
CC(C)(C)[C@@H]1C=C(C(=O)NCc2ccccc2)O[C@H](OCc2ccc(CO)cc2)C1 | inconclusive: 0.141 µM [inhibitor, full curve, poor fit] |  | 
O=c1ccn([C@@H]2O[C@H](COP(=O)(O)OP(=O)(O)OP(=O)(O)O)[C@@H](O)[C@H]2O)c(=O)[nH]1 |  | inactive: 6.8% | 
CCCCn1c(NC(=O)c2ccccc2Cl)c(C#N)c2nc3ccccc3nc21 | inconclusive: 35.5 µM [inhibitor, single point] |  | 
O=C(c1cnccn1)N1CCC2(CC1)CCN(c1ccccc1)CC2 |  | inactive: -5.5% | 
O=C(CCC(=O)Nc1ccc(F)cc1)N/N=C/c1cc([N+](=O)[O-])ccc1O |  | inactive: -11.4% | 
COc1ccc(C(=O)NCc2ccc3c(c2)cc(C)n3C)cc1 | inconclusive: 31.6 µM [inhibitor, single point] |  | 
CN(C)c1ccc(C(=C2C=CC(=[N+](C)C)C=C2)c2ccc(N(C)C)cc2)cc1 | active: 35.5 µM and active: 10 µM |  | 
CN(C)CCSc1nnc2sc3ccccc3n12 | inconclusive: 0.112 µM [inhibitor, full curve, poor fit] |  | 
CC12CN3CC(C)(CN(C1)C3c1ccc(F)cc1)C2 (stereo not given) | inconclusive: 0.562 µM [inhibitor, partial curve, poor fit] |  | 
COc1ccc(N2C(=O)/C(=C\c3ccco3)N=C2SCC(=O)NC(C)C)cc1Cl | inconclusive: 35.5 µM [inhibitor, single point] |  | 
Oc1cc2c(cc1O)[C@@H]1c3ccc(O)c(O)c3OC[C@]1(O)C2 | active: 12.6 µM |  | 
CCOc1cc(NC(=S)NCC2CCCO2)c(OCC)cc1NC(=O)c1cccc(C)c1 (stereo not given) | inconclusive: 0.794 µM [inhibitor, full curve] |  | 
C[C@H](NC(=O)c1nc[nH]c1C(=O)N[C@@H](Cc1ccccc1)C(=O)OCc1ccccc1)c1ccccc1 | active: 39.8 µM |  | 
CCOC(=O)NC(=O)C(/C=N/c1sccc1C(=O)OC)=C(\C)O | active: 14.1 µM |  | 
CN1C(=O)C(O)(CC(=O)c2cccc(-n3cccc3)c2)c2ccccc21 (stereo not given) |  | inactive: -9.93% | 
COc1cc(/C=N/NC(=O)Cn2cnc3ccccc3c2=O)ccc1O |  | inactive: -7.24% | 
CCOC(=O)C1CCCCN1Cc1cc(Cl)ccc1O (stereo not given) | inconclusive: 0.158 µM [inhibitor, full curve, poor fit] |  | 
CC(C)c1ccc2c(c1)c(SC(C)(C)C)c(CC(C)(C)C(=O)O)n2Cc1ccc(Cl)cc1 | inconclusive: 28.2 µM [inhibitor, single point] and inconclusive: 31.6 µM [inhibitor, single point] |  | 
COc1ccc(C(=O)c2sc3nc(-c4ccccc4)ccc3c2N)cc1OC | inconclusive: 39.8 µM [inhibitor, single point] |  | 
COC(=O)[C@@H]1C[C@H]1[C@@H](NC(=O)c1ccccc1)c1ccccc1 | inactive |  | 
Clc1ccc(/C=N/c2c(-c3ccc(Cl)cc3)nc3n2CCS3)cc1 | inconclusive: 44.7 µM [inhibitor, single point] |  | 
CSCCC(NC(=O)C1CCC(C)CC1)C(=O)OCC(=O)c1ccc(Cl)cc1 (stereo not given) | inconclusive: 0.0282 µM [inhibitor, full curve, poor fit] |  | 

Compound | Potency | activity, negative = inhibition | outcome
COc1ccc(Cn2c3nc4ccccc4nc3c3c(=O)n(Cc4ccco4)cnc32)cc1 | active: 28.2 µM |  | 
CC(/C=C/C(=O)NO)=C\[C@@H](C)C(=O)c1ccc(N(C)C)cc1 | inactive |  | 
O=C(NCCNS(=O)(=O)c1ccc(Cl)cc1)c1cc(OCC(F)(F)F)ccc1OCC(F)(F)F | inconclusive: 35.5 µM [inhibitor, single point] |  | 
COCCN1CCc2[nH]c(=S)[nH]c(=O)c2C1 |  | inactive: -1.25% | 
COc1ccc(CN2c3cc(S(=O)(=O)N4CCOCC4)ccc3N3CCCC32)cc1 (stereo not given) |  | inactive: -9.53% | 
CCCCCNCCCCC |  | inactive: -2% | 
O=C(NCCSCc1ccco1)Nc1cccc(Cl)c1 | inconclusive: 39.8 µM [inhibitor, partial curve] |  | 
Cc1cc(C)c(S(=O)(=O)NCc2ccc3c(c2)cc(C)n3C)c(C)c1 | inconclusive: 31.6 µM [inhibitor, single point] |  | 
COc1ccc2nc(N=Nc3ccc(N(C)C)cc3)sc2c1 |  |  | inactive
Cc1ccc(O)c(-c2cc(C(=O)Nc3ccc(S(=O)(=O)N4CC(C)OC(C)C4)cc3)[nH]n2)c1 (stereo not given) | inconclusive: 0.158 µM [inhibitor, full curve, poor fit] |  | 
O=C(NCCc1ccccc1)c1ccc2nc(-c3ccco3)c(-c3ccco3)nc2c1 | inconclusive: 25.1 µM [inhibitor, single point] |  | 
Cn1c(=O)c(N)c2c3c(c(Br)ccc31)C(=O)c1ccccc1-2 |  | inactive: 3.7% | 
Cc1cc(C(=O)Nc2c(C)nn(Cc3ccc(Cl)cc3)c2C)no1 | inconclusive: 3.16 µM [inhibitor, partial curve, poor fit] |  | 
CC(C)c1cc(-c2cc(C(=O)NCc3ccccc3)on2)nc(NC2CCCC2)n1 | inconclusive: 3.55 µM [inhibitor, partial curve] |  | 
Oc1ccc(/C=N/NC(=S)Nc2cccnc2)cc1O | active: 8.91 µM |  | 
O=c1c(-c2cc(O)c(O)c(O)c2)coc2cc(O)c(O)c(O)c12 | active: 1.26 µM |  | 
Cc1cc(C)n2c(SC/C(O)=C(\C#N)c3nc4ccccc4[nH]3)nnc2n1 | inconclusive: 35.5 µM [inhibitor, single point] |  | 
Cc1ccc(Cn2c(O)c(N=O)c3ccccc32)cc1 | inconclusive: 35.5 µM [inhibitor, single point] |  | 
COc1cc(C2Nc3ccc4ncccc4c3C3=C2C(=O)CC(C)(C)C3)cc(OC)c1O (stereo not given) |  |  | inactive
O=C(Cc1ccc(Br)cc1)OCC(=O)c1ccc2c(c1)OCCO2 | inconclusive: 35.5 µM [inhibitor, partial curve] |  | 
COc1ccc(NC(=O)c2c3c(nc4ccccc24)CCC3)cc1S(=O)(=O)N1CCOCC1 | active: 22.4 µM |  | 
CC(=O)Cn1cnc2c(sc3nc(C)cc(C)c32)c1=O |  | inactive: -3.18% | 
